Results on 1 molecule are retold here after paper PMC7601446, “Significant Decreased Expressions of CaN, VEGF, SLC39A6 and SFRP1 in MDA-MB-231 Xenograft Breast Tumor Mice Treated with Moringa oleifera Leaves and Seed Residue (MOLSr) Extracts” (Nutrients, 2020).

In assay [1] the test system is Primary mammary epithelial cells (PMECs). Nature of the assay: MTT cell viability assay, PMECs. The class given is cell-based. The settings on record: Homo sapiens. Here is the method: All experiments were conducted in triplicate.
In assay [2] the test system is Colorectal carcinoma cells (HCT-116). As to the kind of experiment: MTT cell viability assay, HCT-116. The class given is cell-based. The settings on record: Homo sapiens, HCT-116, 24 h. (In general: Tetrazolium assays rely on reduction of a dye to a coloured formazan, in cell work by metabolically active cells.)
For assay [3], the system named is Hepatocellular carcinoma (HepG2). Nature of the assay: MTT cell viability assay, HepG2. Type of assay: cell-based. The note with it: Homo sapiens. The method, then:
(§1) Non-malignant Chang’s liver (ATCC® CCL-13), human hepatocellular carcinoma (HepG2) (ATCC® HB-8065™), cervical adenocarcinoma (HeLa) (ATCC® CCL-2™) and human breast adenocarcinoma (MCF-7) (ATCC® HTB-22™) cell lines were maintained in Eagle’s minimum essential medium (ATCC® 30-2003™), respectively (Sigma Aldrich, St Louis, MO, USA). Human colorectal carcinoma (HCT-116) cell lines (ATCC® CCL-247™) were cultured in McCoy’s 5A (ATCC® 30-2007™). […] When the cells reached 70–80% confluency, the cells were detached with phosphate buffer saline (Sigma Aldrich, St Louis, MO, USA), trypsinized with 3 mL of trypsin-EDTA (Nacalai Tesque, Kyoto, Japan) and either seeded in a 96-well plate or sub-cultured.
(§2) The 3-(4,5-dimethylthiazol-2-yl)-2,5-diphenyltetrazolium bromide (MTT) assay is a mitochondrial-based cytotoxic test on cell viability. […] All experiments were conducted in triplicate.

For assay [4], the system named is Cervical adenocarcinoma cells (HeLa). As to the kind of experiment: MTT cell viability assay, HeLa. Type of assay: cell-based. The note with it: Homo sapiens.
Assay [5] relates to Non-malignant Chang’s liver cells. As to the kind of experiment: MTT cell viability assay, Chang's liver cells. Type of assay: cell-based. Here is the method:
as §1, §2

Assay [6] has as its system all the tested cell lines. As to the kind of experiment: cells. The note with it: read-out: IC50 values among all the tested cell lines.
In assay [7] the test system is Breast adenocarcinoma cells (MCF-7). Nature of the assay: MTT cell viability assay, MCF-7. Type of assay: cell-based. The note with it: Homo sapiens, MCF7. Here is the method: as §1, §2

Converted amounts (≈) assume the structure as drawn.

As a reminder, the IC50 is the concentration that gives 50% inhibition. Turning to `CC/C(=C(\c1ccccc1)c1ccc(OCCN(C)C)cc1)c1ccccc1` [TAM, tamoxifen], the IC50 in assay [1] (24 h) stood at 4 µg/mL (≈ 10.8 µM); in assay [1] (48 h) it was 4 µg/mL (≈ 10.8 µM); in assay [1] (72 h), 3 µg/mL (≈ 8.07 µM); in assay [2] it was 9 µg/mL (≈ 24.2 µM); in assay [3] (HepG2, 24 h), 7 µg/mL (≈ 18.8 µM); in assay [3] (HepG2, 48 h), 4 µg/mL (≈ 10.8 µM). The IC50 is 3 µg/mL (≈ 8.07 µM) in assay [3] (HepG2, 72 h); 3.5 µg/mL (≈ 9.42 µM) in assay [4] (48 h); 3 µg/mL (≈ 8.07 µM) in assay [4] (72 h); 4 µg/mL (≈ 10.8 µM) in assay [5] (24 h); 6 µg/mL (≈ 16.1 µM) in assay [5] (48 h); 3 µg/mL (≈ 8.07 µM) in assay [5] (72 h). Also, the IC50 is 3 to 15.5 µg/mL (≈ 8.07 to 41.7 µM) in assay [6]; 15.5 µg/mL (≈ 41.7 µM) in assay [7] (MCF-7, 24 h); 7.5 µg/mL (≈ 20.2 µM) in assay [7] (MCF-7, 48 h); 8 µg/mL (≈ 21.5 µM) in assay [7] (MCF-7, 72 h).
